Results: paper PMC10580381 (ACS Pharmacology & Translational Science, 2023)

Test system: total HDAC activity from the H1975 nuclear extract
Details: 10 μM (highest concentration tested)

SMILES: Fc1ccc(C(c2ccc(F)cc2)N2CCN(C/C=C/c3ccccc3)CC2)cc1 [flunarizine]
- inhibition of total HDAC activity: ~75%
